The source of these data is patent publication US20190209659, “STABLE LIQUID FIBRINOGEN” (LABORATOIRE FRANCAIS DU FRACTIONNEMENT ET DES …, published 2019).

Negatives hold for the conditions tested.

For this series, the system named is fibrinogen (plasma) (Homo sapiens). Nature of the series: SPR. To be noted: 5' biotin-triethylene glycol (SPR), 5' amino-C6 spacer and 3' inverted dT (affinity support), purified native protein, single-stranded DNA.

Consider “GGGTCAATGCCAGGTCTCGGACCTGGAATCCGCCACCCGCATTAGAACCAGGGTTGAC [SEQ ID NO 66 (A5-1.9 base sequence)]”, for which the binding result (pH above 6.8: not bound, binding decreases as pH rises from 6.3, variant of SEQ ID NO 1 aptamer) is “no binding”.
In the case of “CGCGTGTGGTTGGTAGGGCTAGGTGTATACGCAT [SEQ ID NO 67 (A5-2.9 base sequence)]”, the binding result (pH above 6.8: no binding, variant of SEQ ID NO 58 aptamer) is reported as “no binding”.
